Experiment [1] addresses T1, CEMIP (cell migration-inducing and hyaluronan-binding protein), endogenous (human (endogenous in HCT116)) (UniProt Q8WUJ3).
T1 sequence: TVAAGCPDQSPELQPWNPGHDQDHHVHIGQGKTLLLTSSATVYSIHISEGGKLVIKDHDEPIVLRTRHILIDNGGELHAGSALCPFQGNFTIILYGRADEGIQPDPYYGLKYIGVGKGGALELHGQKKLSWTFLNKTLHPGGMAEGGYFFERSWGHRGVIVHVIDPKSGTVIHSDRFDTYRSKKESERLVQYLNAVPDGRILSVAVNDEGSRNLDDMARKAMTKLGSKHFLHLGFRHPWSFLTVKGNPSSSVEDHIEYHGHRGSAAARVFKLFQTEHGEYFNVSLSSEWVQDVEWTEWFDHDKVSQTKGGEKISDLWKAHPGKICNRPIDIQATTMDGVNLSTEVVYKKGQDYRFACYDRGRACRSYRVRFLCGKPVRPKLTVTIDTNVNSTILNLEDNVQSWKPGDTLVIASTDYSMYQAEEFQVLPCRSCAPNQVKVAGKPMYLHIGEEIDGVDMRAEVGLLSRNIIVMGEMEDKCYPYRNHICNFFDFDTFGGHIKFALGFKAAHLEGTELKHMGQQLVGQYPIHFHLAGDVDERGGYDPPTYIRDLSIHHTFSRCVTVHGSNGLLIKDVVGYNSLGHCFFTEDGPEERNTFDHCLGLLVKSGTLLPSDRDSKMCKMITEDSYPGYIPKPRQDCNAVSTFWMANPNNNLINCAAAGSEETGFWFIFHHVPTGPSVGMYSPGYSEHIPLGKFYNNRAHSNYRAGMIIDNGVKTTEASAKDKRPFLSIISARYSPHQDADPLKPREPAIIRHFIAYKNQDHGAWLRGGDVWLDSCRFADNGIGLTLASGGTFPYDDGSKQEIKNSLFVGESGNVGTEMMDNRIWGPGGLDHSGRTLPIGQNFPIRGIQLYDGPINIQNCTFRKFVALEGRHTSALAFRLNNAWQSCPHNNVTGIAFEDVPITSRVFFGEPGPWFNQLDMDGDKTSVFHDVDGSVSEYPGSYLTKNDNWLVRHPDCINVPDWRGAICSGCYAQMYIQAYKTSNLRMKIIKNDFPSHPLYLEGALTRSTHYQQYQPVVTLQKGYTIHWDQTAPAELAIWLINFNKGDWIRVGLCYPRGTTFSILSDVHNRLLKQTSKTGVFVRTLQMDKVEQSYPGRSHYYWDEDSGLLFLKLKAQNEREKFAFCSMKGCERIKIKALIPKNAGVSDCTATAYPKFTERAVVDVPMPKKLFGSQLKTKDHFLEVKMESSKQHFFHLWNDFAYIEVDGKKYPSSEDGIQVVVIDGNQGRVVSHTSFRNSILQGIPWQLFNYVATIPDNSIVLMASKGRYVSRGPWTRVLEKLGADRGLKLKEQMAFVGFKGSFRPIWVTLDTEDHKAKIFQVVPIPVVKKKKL
The experiment is described as follows: co-IP; endogenous proteins in HCT116 lysate, NETN buffer, Protein G agarose beads with primary antibody or IgG (negative control), overnight at 4 °C, western blot; for GRAF1 and MIB1 also with knock-down of CEMIP (shCEMIP).

In experiment [2] the target is T1, CEMIP (cell migration-inducing and hyaluronan-binding protein), endogenous (human (endogenous in HCT116)). The experiment is described as follows: proximity ligation; Duolink in situ fluorescence on fixed HCT116 cells, endogenous proteins, pairs of primary antibodies 2 h at 37 °C, IgG pair as control, confocal microscope.
Experiment [3] deals with T2, CEMIP-myc (CEMIP cDNA with c-myc tag attached in C terminal of CEMIP), in HEK293T cells (UniProt Q8WUJ3).
T2 sequence: T1 sequence
The experiment is described as follows: co-IP; HEK293T cells co-transfected with the indicated constructs, whole cell lysate, NETN buffer, Protein G agarose beads, overnight at 4 °C, western blot.

The target in experiment [4] is T3, Flag-GRAF1 (GRAF1-overexpression plasmid with Flag tag attached in N terminal of GRAF1), in HEK293T cells (UniProt Q9UNA1).
T3 sequence: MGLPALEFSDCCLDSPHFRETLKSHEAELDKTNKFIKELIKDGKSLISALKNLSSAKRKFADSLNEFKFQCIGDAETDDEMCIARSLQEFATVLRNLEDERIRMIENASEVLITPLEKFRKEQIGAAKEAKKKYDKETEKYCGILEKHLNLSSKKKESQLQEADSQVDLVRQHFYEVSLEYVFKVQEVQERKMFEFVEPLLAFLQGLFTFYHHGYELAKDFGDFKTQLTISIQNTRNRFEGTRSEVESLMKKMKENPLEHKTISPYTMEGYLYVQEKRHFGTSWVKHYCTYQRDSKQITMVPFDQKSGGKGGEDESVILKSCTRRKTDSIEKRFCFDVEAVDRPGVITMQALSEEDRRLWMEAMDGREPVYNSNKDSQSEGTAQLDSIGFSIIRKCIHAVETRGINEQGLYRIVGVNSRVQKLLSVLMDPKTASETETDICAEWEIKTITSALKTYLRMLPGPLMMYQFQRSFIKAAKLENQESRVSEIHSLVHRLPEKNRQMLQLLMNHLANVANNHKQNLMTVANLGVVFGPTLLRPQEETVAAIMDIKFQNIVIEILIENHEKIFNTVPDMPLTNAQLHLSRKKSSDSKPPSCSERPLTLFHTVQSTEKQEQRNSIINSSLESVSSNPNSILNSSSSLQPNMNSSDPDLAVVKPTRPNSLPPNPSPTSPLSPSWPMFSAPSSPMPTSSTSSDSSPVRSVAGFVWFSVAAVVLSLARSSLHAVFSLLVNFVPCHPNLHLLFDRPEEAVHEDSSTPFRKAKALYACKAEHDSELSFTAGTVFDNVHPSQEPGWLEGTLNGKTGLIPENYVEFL
Described as above.

These are yes or no findings as the source states them, for the method shown. Binding seen in cells or lysates may run through a third protein. Some binding calls cover weakened binding; strength is not graded here. For some of these results: Where a sequence is shown, tags or fusion partners need not be part of it.

B1: GRAF1 (also named ARHGAP26), endogenous (protein, UniProt Q9UNA1 1-814)
chain: T3 sequence
Regarding B1, the binding entry in experiment [1] and in experiment [2] was “binds” throughout.

B2: Flag-GRAF1 (GRAF1-overexpression plasmid with Flag tag attached in N terminal of GRAF1), in HEK293T cells (protein, UniProt Q9UNA1 1-814)
chain: T3 sequence
For B2, the binding result in experiment [3] is “binds”.

B3: CEMIP-myc (CEMIP cDNA with c-myc tag attached in C terminal of CEMIP), in HEK293T cells (protein, UniProt Q8WUJ3 31-1361)
chain: T1 sequence
As for B3, the binding entry in experiment [4] was “binds”.

B4: CEMIP-myc-∆2 + 3: 295–819aa (domain or fragment, UniProt Q8WUJ3 295-819)
chain: AAARVFKLFQTEHGEYFNVSLSSEWVQDVEWTEWFDHDKVSQTKGGEKISDLWKAHPGKICNRPIDIQATTMDGVNLSTEVVYKKGQDYRFACYDRGRACRSYRVRFLCGKPVRPKLTVTIDTNVNSTILNLEDNVQSWKPGDTLVIASTDYSMYQAEEFQVLPCRSCAPNQVKVAGKPMYLHIGEEIDGVDMRAEVGLLSRNIIVMGEMEDKCYPYRNHICNFFDFDTFGGHIKFALGFKAAHLEGTELKHMGQQLVGQYPIHFHLAGDVDERGGYDPPTYIRDLSIHHTFSRCVTVHGSNGLLIKDVVGYNSLGHCFFTEDGPEERNTFDHCLGLLVKSGTLLPSDRDSKMCKMITEDSYPGYIPKPRQDCNAVSTFWMANPNNNLINCAAAGSEETGFWFIFHHVPTGPSVGMYSPGYSEHIPLGKFYNNRAHSNYRAGMIIDNGVKTTEASAKDKRPFLSIISARYSPHQDADPLKPREPAIIRHFIAYKNQDHGAWLRGGDVWLDSCRFADNGIGLTLAS
B4: the binding result in experiment [4] is given as “binds”.

B5: CEMIP-myc-∆3: 572–819aa (domain or fragment, UniProt Q8WUJ3 572-819)
chain: DPPTYIRDLSIHHTFSRCVTVHGSNGLLIKDVVGYNSLGHCFFTEDGPEERNTFDHCLGLLVKSGTLLPSDRDSKMCKMITEDSYPGYIPKPRQDCNAVSTFWMANPNNNLINCAAAGSEETGFWFIFHHVPTGPSVGMYSPGYSEHIPLGKFYNNRAHSNYRAGMIIDNGVKTTEASAKDKRPFLSIISARYSPHQDADPLKPREPAIIRHFIAYKNQDHGAWLRGGDVWLDSCRFADNGIGLTLAS
On to B5, for which, in experiment [4], the binding entry was “binds”.

B6: CEMIP-myc-∆2: 295–591aa (domain or fragment, UniProt Q8WUJ3 295-591)
chain: AAARVFKLFQTEHGEYFNVSLSSEWVQDVEWTEWFDHDKVSQTKGGEKISDLWKAHPGKICNRPIDIQATTMDGVNLSTEVVYKKGQDYRFACYDRGRACRSYRVRFLCGKPVRPKLTVTIDTNVNSTILNLEDNVQSWKPGDTLVIASTDYSMYQAEEFQVLPCRSCAPNQVKVAGKPMYLHIGEEIDGVDMRAEVGLLSRNIIVMGEMEDKCYPYRNHICNFFDFDTFGGHIKFALGFKAAHLEGTELKHMGQQLVGQYPIHFHLAGDVDERGGYDPPTYIRDLSIHHTFSRCVT
Take B6: the binding entry in experiment [4] was “binds”.

The values are drawn from paper PMC9971195.
